# Data taken from PMC12440932.
# These are yes or no findings as the source states them, for the method shown. Some results given as binding are weak or reduced against the parent protein; the word gives no strength.
# B1: dihydrolipoamide S-acetyltransferase (DLAT) (protein, UniProt Q8BMF4 86-642)
# chain: SLPPHQKVPLPSLSPTMQAGTIARWEKKEGEKISEGDLIAEVETDKATVGFESLEECYMAKILVPEGTRDVPVGSIICITVEKPQDIEAFKNYTLDLAAAAAPQAAPAAAPAPAAAPAAPSASAPGSSYPTHMQIVLPALSPTMTMGTVQRWEKKVGEKLSEGDLLAEIETDKATIGFEVQEEGYLAKILVPEGTRDVPLGAPLCIIVEKQEDIAAFADYRPTEVTSLKPQAAPPAPPPVAAVPPTPQPVAPTPSAAPAGPKGRVFVSPLAKKLAAEKGIDLTQVKGTGPEGRIIKKDIDSFVPSKAAPAAAAAMAPPGPRVAPAPAGVFTDIPISNIRRVIAQRLMQSKQTIPHYYLSVDVNMGEVLLVRKELNKMLEGKGKISVNDFIIKASALACLKVPEANSSWMDTVIRQNHVVDVSVAVSTPAGLITPIVFNAHIKGLETIASDVVSLASKAREGKLQPHEFQGGTFTISNLGMFGIKNFSAIINPPQACILAIGASEDKLIPADNEKGFDVASVMSVTLSCDHRVVDGAVGAQWLAEFKKYLEKPITMLL
# modifications: lipoylated (sites not given)
# Target: dihydrolipoamide S-acetyltransferase (DLAT) (mouse (endogenous in colonic mucosa of C57BL/6 mice)) (UniProt Q8BMF4)
# Test: native gel or EMSA; non-denaturing gel electrophoresis of colonic mucosa protein, immunoblot for DLAT; mice: control, DSS (2.5%, 7 days), DSS + TTM, DSS + PA; oligomerization reduced by TTM and by PA
binder,measurement,value
B1,binding,binds
